Measurements reported in patent US8735167B2, “Photoinduced signal amplification through externally sensitized photofragmentation in masked photosensitizers and photoamplified fluorescence turn-off system” (Colorado Seminary, which owns and operates The University …, priority 2007, dated 2014).

Assay: Photoamplified fluorescence quenching of p-terphenyl (turn-off assay)

## O=C(c1ccccc1)c1ccccc1 [benzophenone]
4% N-n-octadecylurea organogel in t-BuPh, p-terphenyl 2×10^−5M, BP 10^−6M
  fluorescence quenching of p-terphenyl, control without photoamplification: no significant fluorescence quenching without photoamplification
CH2Cl2, p-terphenyl 2×10^−5 M, BP 10^−4 M, no adduct
  fluorescence quenching of p-terphenyl, control without photoamplification: no quenching without photoamplification
t-BuPh, p-terphenyl 2×10^−5 M, BP 10^−4 M, no adduct
  fluorescence quenching of p-terphenyl, control without photoamplification: no quenching without photoamplification
